In the supplement of paper PMC12542422 one finds fraction data, which are given here for 11 compounds.

Structures are written as SMILES. Counter-ions that a name gives are not always drawn. ± gives the standard deviation of the averaged measurements. This is one part of the list. These are raw signals, not scaled to a control.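 Ribosome-assembly readouts in HeLa cells were imaged via ENP1 staining, with or without export block, or inducible tagged ribosomal protein reporters. Machine learning classified per-cell signal location versus solvent (DMSO) controls. Hits surpassed the DMSO false-positive mean by five standard deviations and were visually confirmed; three biological replicates.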

This assay concerns HeLa K (ENP1 immunofluorescence, no LMB). Briefly: fraction of cells with nucleolar or nucleolar/nucleoplasmic ENP1 signal (MainHitrate); higher = more cells with nucleolar/nuclear readout signal (for ENP1 -LMB: less RNAPI inhibition; for +LMB ENP1 and RP reporters: stronger nuclear/nucleolar retention, i.e. ribosome biogenesis defect). The settings on record: concentration: 1 µM; treatment time: 6 h; ENP1 -LMB; leptomycin B: none.
With `O=C(N/N=C/c1ccc([N+](=O)[O-])o1)c1ccc(O)cc1` [Nifuroxazide], the fraction is 0.98 ± 0.034.

In turn, `N[C@H](C(=O)O)[C@H](O)c1ccc(O)c(O)c1` [Droxidopa (L-DOPS)] returned a fraction of 0.985 ± 0.026.

With `N=C(N)NC(=N)N1CCOCC1` [Moroxydine], the fraction is 0.991 ± 0.016.

With `COc1ccc(C(=O)CC(=O)c2ccc(C(C)(C)C)cc2)cc1` [Avobenzone (Parsol 1789)], the fraction was 0.987 ± 0.023.

Compound `CC[C@H]1OC(=O)[C@H](C)[C@@H](O[C@H]2C[C@@](C)(OC)[C@@H](O)[C@H](C)O2)[C@H](C)[C@@H](O[C@@H]2O[C@H](C)C[C@H](N(C)C)[C@H]2O)[C@](C)(O)C[C@@H](C)C(=O)[C@H](C)[C@@H](O)[C@]1(C)O` [Erythromycin (E-Mycin)] came in with a fraction of 0.998 ± 0.0034.

`C[C@H](CCC(=O)O)[C@H]1CC[C@H]2[C@@H]3CC[C@@H]4C[C@H](O)CC[C@]4(C)[C@H]3CC[C@]12C` [Lithocholic acid] displayed a fraction of 0.986 ± 0.024.

The compound `CC(=O)SCC(Cc1ccccc1)C(=O)NCC(=O)OCc1ccccc1` (stereo unspecified) [Racecadotril (Acetorphan)] returned a fraction of 0.994 ± 0.011.

Take `Nc1nc(NC2CC2)c2ncn([C@H]3C=C[C@@H](CO)C3)c2n1` [Abacavir sulfate]: the fraction is 0.988 ± 0.02.

`CC(C)Cc1ccc(C(C)C(=O)O)cc1` (stereo unspecified) [Ibuprofen Lysine (NeoProfen)] gave a fraction of 0.9972 ± 0.0048.

Consider `Nc1ccn([C@@H]2O[C@H](CO)[C@@H](O)C2(F)F)c(=O)n1` [Gemcitabine HCl (Gemzar)], for which the fraction is 0.9971 ± 0.0051.

The compound `COc1ccc2c(c1)c(CC(=O)O)c(C)n2C(=O)c1ccc(Cl)cc1` [Indomethacin (Indocid, Indocin)] came in with a fraction of 0.998 ± 0.0034.
